Experimental findings from US11656182B2, “Method, composition, and chip for detecting analyte in blood sample” (TERUMO KABUSHIKI KAISHA, priority 2016, dated 2023) are described below.

The data set relates to blood sample (hematocrit value: 40). In words: Spectrum analysis of detection chip after blood sample is deposited. The conditions noted are these: 10 to 15 seconds, corrected to clearance 35 μm.
Turning to `OC[C@H]1O[C@H](O[C@]2(CCl)O[C@H](CCl)[C@@H](O)[C@@H]2O)[C@H](O)[C@@H](O)[C@H]1Cl` [Sucralose, sucralose], the “Transmittance 545 nm, 575 nm (Hb absorption peak wavelength)” value (shortened to “Transmittance 545 nm, 575 nm”) was “⊙ (the transmittance of both the peak minimal values observed at 545 nm and 575 nm is 15% or more)”.
For `O=S(=O)(O)c1cc(S(=O)(=O)O)c2c(/N=N/c3ccccc3)c(O)ccc2c1` [Orange G], the “Transmittance 545 nm, 575 nm” value was “◯ (the transmittance of any one of the peak minimal values observed at 545 nm and 575 nm is 15% or more)”.
With `O=S(=O)(O)c1cccc(S(=O)(=O)O)c1` [DSB, 1,3-benzene disulfonate], the “Transmittance 545 nm, 575 nm” value is “⊙ (the transmittance of both the peak minimal values observed at 545 nm and 575 nm is 15% or more)”.
With `OC[C@H]1O[C@H](O[C@H]2O[C@H](CO)[C@@H](O)[C@H](O)[C@H]2O)[C@H](O)[C@@H](O)[C@@H]1O` [Trehalose, trehalose], the “Transmittance 545 nm, 575 nm” value is “⊙ (the transmittance of both the peak minimal values observed at 545 nm and 575 nm is 15% or more)”.
With `O=C([O-])C1=NN(c2ccc(S(=O)(=O)[O-])cc2)C(=O)C1N=Nc1ccc(S(=O)(=O)[O-])cc1.[Na+].[Na+].[Na+]` (centres unmarked) [Acid Yellow 23], the “Transmittance 545 nm, 575 nm” value is “◯ (the transmittance of any one of the peak minimal values observed at 545 nm and 575 nm is 15% or more)”.
